Test results published in PubChem BioAssay (EPA / NIEHS).
The shares of active, inactive and inconclusive entries below differ from those in the screen. The calls were made as follows: active = hit-call score of the fitted dose curve at least 0.9, where 1 is the maximum; inconclusive = response in the unintended direction; inactive = score below 0.9. Potencies of inconclusive entries are doubtful fits and often do not repeat.

Test system: SRY-box transcription factor 2 (SOX2) Protein Expression, Deisenroth Lab, SOX2 (gene 6657)
Assay: CCTE_Deisenroth_DEVTOX-GLR_Endo_SOX2: CCTE's DevTox GLR-Endo Assay Evaluation of SRY-box transcription factor 2 (SOX2) Protein Expression, Deisenroth Lab (AID 2284412)
Outline: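 Endpoint is percent SOX2-positive cells (SOX2+ count/total cells) minus 0.2% DMSO control, from high-content imaging of fixed, nuclear-stained RUES2-GLR cells. Dosing twice at 24 h intervals over 48 h differentiation, 1 nM–200 uM in 10 points.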

SMILES	AC50
COC(=O)c1ccccc1C(=O)OC	inconclusive: 73.3 nM
O=P1(N(CCCl)CCCl)NCCCO1 (stereo not drawn)	inconclusive: 0.502 nM
CC1=C2C[C@H]3[C@@H](CC=C4C[C@@H](O)CC[C@@]43C)[C@@H]2CC[C@]12O[C@@H]1C[C@H](C)CN[C@H]1[C@H]2C	inconclusive: 139 nM
